# These are yes or no findings as the source states them, for the method shown. In cells and extracts the contact can be indirect. Some entries that bind do so weakly or less than the wild type.
# Sequences of proteins named here, by UniProt entry; tags and fusion partners are left off.
# UniProt P09874: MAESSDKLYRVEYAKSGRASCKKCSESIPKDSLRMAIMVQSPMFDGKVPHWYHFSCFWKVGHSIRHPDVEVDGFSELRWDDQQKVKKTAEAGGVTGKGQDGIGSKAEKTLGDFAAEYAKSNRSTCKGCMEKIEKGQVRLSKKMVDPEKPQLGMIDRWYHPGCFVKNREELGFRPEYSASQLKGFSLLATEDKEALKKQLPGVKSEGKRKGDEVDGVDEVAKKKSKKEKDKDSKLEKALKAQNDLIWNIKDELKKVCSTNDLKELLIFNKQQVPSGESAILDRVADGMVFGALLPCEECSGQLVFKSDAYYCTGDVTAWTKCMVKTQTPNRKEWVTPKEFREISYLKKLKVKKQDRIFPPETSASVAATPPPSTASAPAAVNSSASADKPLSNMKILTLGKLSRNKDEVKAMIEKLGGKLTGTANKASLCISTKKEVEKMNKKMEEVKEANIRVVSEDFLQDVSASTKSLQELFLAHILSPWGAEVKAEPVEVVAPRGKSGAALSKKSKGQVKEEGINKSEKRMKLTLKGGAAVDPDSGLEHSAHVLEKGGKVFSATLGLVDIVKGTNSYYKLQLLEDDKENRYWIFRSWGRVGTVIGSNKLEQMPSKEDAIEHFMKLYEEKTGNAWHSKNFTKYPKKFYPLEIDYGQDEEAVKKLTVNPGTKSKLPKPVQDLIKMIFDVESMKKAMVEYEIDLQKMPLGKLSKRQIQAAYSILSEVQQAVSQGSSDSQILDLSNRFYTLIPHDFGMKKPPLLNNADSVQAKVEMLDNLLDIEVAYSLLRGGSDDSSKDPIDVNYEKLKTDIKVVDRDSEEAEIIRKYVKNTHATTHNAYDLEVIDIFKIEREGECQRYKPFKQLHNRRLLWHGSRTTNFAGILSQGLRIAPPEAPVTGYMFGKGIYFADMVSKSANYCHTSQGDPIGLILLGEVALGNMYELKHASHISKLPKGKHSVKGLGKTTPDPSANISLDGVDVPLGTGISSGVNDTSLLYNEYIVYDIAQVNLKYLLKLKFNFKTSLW
# UniProt P09429: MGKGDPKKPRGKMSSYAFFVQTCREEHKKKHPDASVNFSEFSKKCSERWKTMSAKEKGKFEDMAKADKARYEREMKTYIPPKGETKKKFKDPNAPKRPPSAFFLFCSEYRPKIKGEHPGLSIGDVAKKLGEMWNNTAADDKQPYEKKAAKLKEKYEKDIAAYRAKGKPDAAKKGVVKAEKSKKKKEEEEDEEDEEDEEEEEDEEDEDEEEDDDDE
# Target: PARP1 (not stated (cell line of this experiment not named; SH-SY5Y human or PC12 rat cells)) (UniProt P09874)
# Test: co-IP; anti-PARP1 antibody (1:200) on protein G or A magnetic beads; precleared lysate (25 mM Tris-Cl pH 7.4, 150 mM NaCl, 1% NP-40) incubated overnight at 4 °C; cells treated with rotenone for 4 h; Western blot for HMGB1
substance,measurement,value
High mobility group box 1 (HMGB1) (from UniProt P09429 1-215),binding,binds
